Reference: the supplement of paper PMC4635364
Where a name gives a salt, the structure may show the parent alone. The list shows a part of the results. Single values are uncertain here, since repeats match poorly.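 Human fetal ventral-midbrain neural progenitor line ReNCell VM, differentiated without mitogens. Images stained for doublecortin (early neurons) or tyrosine hydroxylase (dopaminergic neurons) were scored by blinded raters against untreated wells (0 = no change). Repeats and both raters were averaged, and compounds averaging 2 or higher were picked as hits for retesting.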 Where a SMILES comes first, the peptide text is derived from it.

system: ReNCell VM; test: dopaminergic neuron differentiation score (TH+ cell fraction vs untreated, manual image score) (score (0 to 3)); higher = more TH+ dopaminergic neuron differentiation; settings: library: Spectrum; 2 uM; 4 weeks; BDNF 10 ng/ml + GDNF 10 ng/ml

Dopaminergic neuron differentiation score, inactive:
CC(=O)O[C@@H]1CC[C@@]2(C)C(C[C@@H](OC(C)=O)[C@@]3(C)C4=CC(=O)O[C@@H](c5ccoc5)[C@]4(C)CCC23)C1(C)C (stereo partly drawn) [3alpha-ACETOXYDIHYDRODEOXYGEDUNIN] 0
Cc1ccc(NC(=O)c2ccc(CN3CCN(C)CC3)cc2)cc1Nc1nccc(-c2cccnc2)n1 0
CC(C)[C@H](NC(=O)[C@H](CC(=O)O)NC(=O)[C@H](CCCCN)NC(=O)[C@@H](N)CCCN=C(N)N)C(=O)N[C@@H](Cc1ccc(O)cc1)C(=O)O (H-RKDVY-OH) 0
O=C(O)c1cc(=O)c2ccccc2o1 0
CC(C)c1nc(N(C)S(C)(=O)=O)nc(-c2ccc(F)cc2)c1/C=C/[C@@H](O)C[C@@H](O)CC(=O)O 0
Cc1ccccc1C(OCCN(C)C)c1ccccc1 (configuration not stated) 0

same assay, conditions: library: Tocriscreen; 2 uM; 4 weeks; BDNF 10 ng/ml + GDNF 10 ng/ml

Dopaminergic neuron differentiation score, inactive:
CC1(COc2ccc(CC3SC(=O)NC3=O)cc2)CCCCC1 (configuration not stated) [Ciglitazone] 0
COc1ccc([C@H]2CNC(=O)C2)cc1OC1CCCC1 [(S)-(+)-Rolipram] 0
CN(C)c1nc(N)c(C(=O)Nc2cccnc2)nc1Cl [ACDPP hydrochloride] 0
CNC(=O)[C@H]1O[C@@H](n2cnc3c(NCc4cccc(I)c4)nc(Cl)nc32)[C@H](O)[C@@H]1O 0
CCN(CC)CC1CCCCN1CC(=O)N1c2ccccc2C(=O)Nc2cccnc21 (configuration not stated) 0
Cc1c(NC(=O)N2CCOCC2)ccc2c1c1ccccc1n2C(C)C 0

A run of entries taken from the entries so far, as a working copy:
Dopaminergic neuron differentiation score, inactive:
CN(C)c1nc(N)c(C(=O)Nc2cccnc2)nc1Cl [ACDPP hydrochloride] 0
CNC(=O)[C@H]1O[C@@H](n2cnc3c(NCc4cccc(I)c4)nc(Cl)nc32)[C@H](O)[C@@H]1O 0
